Experimental data published in patent US20240327538A1.
No constants are given. Whether binding was seen depends on the method and setting. Binding calls can cover weak binding; strength is not graded here.

What was measured:
[1] = biological target: CD3 complex expressed in HEK293T cells (membrane protein screen); test: immunofluorescence FACS on HEK293T cells expressing membrane proteins
[2] = biological target: CD3 epsilon expressed in HEK293T cells (membrane protein screen) (Homo sapiens (Human)); test: as above

B1: AMX-500-P7 (bispecific antibody)
chain: ASSATPESGPGTSTEPSEGSAPGTSESATPESGPGSGPGTSESATPGTSESATPESGPGSEPATSGSETPGTSESATPESGPGTSTEPSEGSAPGSPAGSPTSTEEGTSESATPESGPGSEPATSGSETPGTSESATPESGPGSPAGSPTSTEEGSPAGSPTSTEEGTSTEPSEGSAPGTSESATPESGPGTSESATPESGPGTSESATPESGPGSEPATSGSETPGSEPATSGSETPGSPAGSPTSTEEGTSTEPSEGSAPGTSTEPSEGSAPGSEPATSGSETPGTSESATPEAGRSASHTPAGLTGPGTSESATPESQVQLVESGGGVVQPGRSLRLSCAASGRTFGIYVWGWVRQAPGKEREFVGAISWSGSNRKVSDSVKGRFTISRDNSKNTLYLQMNSLRAEDTAVYYCAASNKLYGRTWYDFNESDYWGQGTQVTVSSGGGGSGGGSELVVTQEPSLTVSPGGTVTLTCRSSNGAVTSSNYANWVQQKPGQAPRGLIGGTNKRAPGTPARFSGSLLGGKAALTLSGVQPEDEAVYYCALWYPNLWVFGGGTKLTVLSESATPESGPGTSPGATPESGPGTSESATPEVQLVESGGGIVQPGGSLRLSCAASGFTFSTYAMNWVRQAPGKGLEWVGRIRTKRNNYATYYADSVKGRFTISRDDSKNTVYLQMNSLKTEDTAVYYCVRHENFGNSYVSWFAHWGQGTLVTVSSGTATPESGPGEAGRSASHTPAGLTGPATPESGPGTSESATPESGPGSPAGSPTSTEEGTSESATPESGPGSEPATSGSETPGTSESATPESGPGTSTEPSEGSAPGTSTEPSEGSAPGTSTEPSEGSAPGTSTEPSEGSAPGTSTEPSEGSAPGTSTEPSEGSAPGSPAGSPTSTEEGTSTEPSEGSAPGTSESATPESGPGSEPATSGSETPGTSESATPESGPGSEPATSGSETPGTSESATPESGPGTSTEPSEGSAPGTSESATPESGPGSPAGSPTSTEEGSPAGSPTSTEEGSPAGSPTSTEEGTSESATPESGPGTSTEPSEGSAPGTSESATPESGPGSEPATSGSETPGTSESATPESGPGSEPATSGSETPGTSESATPESGPGTSTEPSEGSAPGSPAGSPTSTEEGTSESATPESGPGSEPATSGSETPGTSESATPESGPGSPAGSPTSTEEGSPAGSPTSTEEGTSTEPSEGSAPGTSESATPESGPGTSESATPESGPGTSPSATPESGPGSEPATSGSETPGSEPATSGSETPGSPAGSPTSTEEGTSTEPSEGSAPGTSTEPSEGSAPGSEPATSGSETPGTSESAGEPEA
binding [1]: binds | binding [2]: binds
